A short description of this series: Fragrance Fidelity Index (FFI) of test material on fabric swatch, expert graders.
The mark [1] stands for this setting: test material at 10 ppm on fabric swatch.
Where [2] appears, read: test material at 50 ppm on fabric swatch.

Each structure is given as a SMILES string.

This passage reports FFI results from US20190029928A1, “Fibrous Structures Comprising Malodor Reduction Compositions” (The Procter & Gamble Company, priority 2017, published 2019).

Consider `CCC(=O)OC1CC2C3C=CCC3C1C2(C)C` (centres unmarked), for which the FFI is reported as 0 under setting [1] and 0 under setting [2].
In turn, `CC1CCC2(C(C)C)CC(C)OC2C1` (centres unmarked) displayed an FFI under setting [2] of 0.3.
In the case of `CC1(C)CCc2ccc(CCC=O)cc21`, the FFI under setting [1] came to 0 and the FFI under setting [2] is 0.5.
